Source: PubChem BioAssay AID1224830 (NIAID, 2016)
Assay: 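Regulators of TLR4 signalling towards TNF-alpha in macrophage-like cells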 (primary screen). System: human THP-1 monocytic leukaemia cells, TNF dual-luciferase reporter clone, PMA-differentiated to macrophage-like cells. Reagent: siRNA pool against human genes, 50 nM. Timing: LPS for 4 h, given about 3 days after siRNA transfection. Treatment: bacterial LPS (TLR4 ligand), 10 ng/ml. Measured: 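Ratio of firefly to renilla light, scaled to the plate median and expressed as a robust z-score per replicate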. Direction: TNF reporter robust z-score: higher = stronger TNF reporter response to LPS. Hit rule: 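a well is active when its z-score exceeds 2.8 or falls below -1.5; control wells carry no call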.
In all, the deposit lists about 18,000 reagents; shown is a random part of them. Of all reagents, about 2,900 (16%) were called active. 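Calls are made per well; low scores hint the gene aids the LPS response, high scores that it dampens it.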 Entries without a mark were called inactive. Repeated entries: four replicate wells of each siRNA pool. Reagent sequences are not shown.

{"gene knocked down": "NCOR2", "TNF reporter robust z-score": -1.1}
{"gene knocked down": "NCOR2", "TNF reporter robust z-score": -0.49}
{"gene knocked down": "NCOR2", "TNF reporter robust z-score": -0.45}
{"gene knocked down": "NCOR2", "TNF reporter robust z-score": 0.32}
{"gene knocked down": "AIDA", "TNF reporter robust z-score": 1.39}
{"gene knocked down": "AIDA", "TNF reporter robust z-score": 0.74}
{"gene knocked down": "AIDA", "TNF reporter robust z-score": -0.03}
{"gene knocked down": "AIDA", "TNF reporter robust z-score": 1.45}
{"gene knocked down": "MMP8", "TNF reporter robust z-score": -1.06}
{"gene knocked down": "MMP8", "TNF reporter robust z-score": 0.56}
{"gene knocked down": "MMP8", "TNF reporter robust z-score": -0.13}

Continued (2 carried over from the part before).
{"gene knocked down": "MMP8", "TNF reporter robust z-score": 0.56}
{"gene knocked down": "MMP8", "TNF reporter robust z-score": -0.13}
{"gene knocked down": "SDF4", "TNF reporter robust z-score": -0.18}
{"gene knocked down": "SDF4", "TNF reporter robust z-score": 0.45}
{"gene knocked down": "SDF4", "TNF reporter robust z-score": 0.66}
{"gene knocked down": "SDF4", "TNF reporter robust z-score": 1.45}
{"gene knocked down": "PHF23", "TNF reporter robust z-score": -1}
{"gene knocked down": "PHF23", "TNF reporter robust z-score": 0.15}
{"gene knocked down": "PHF23", "TNF reporter robust z-score": -1.38}
{"gene knocked down": "PHF23", "TNF reporter robust z-score": -0.54}
